Reference: patent US20190359687A1
No constants are given. Whether binding was seen depends on the method and setting. Some results given as binding are weak or reduced against the parent protein; the word gives no strength.

By UniProt entry, the sequences of proteins in these tests, tags left out. Residues count along the entry.
UniProt P02724, residues 20-150: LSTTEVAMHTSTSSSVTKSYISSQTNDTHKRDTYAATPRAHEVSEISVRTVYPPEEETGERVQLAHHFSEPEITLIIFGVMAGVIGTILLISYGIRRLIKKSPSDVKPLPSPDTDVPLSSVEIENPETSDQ

Legend:
[1] = target: human glycophorin A in the red blood cell membrane (human) (UniProt P02724); assay: FACS on RBC of huGPA/HemA transgenic mice (muTGRBC), 1E+6 RBC/mL, scFv titrated
[2] = target: human glycophorin A in the red blood cell membrane (human) (UniProt P02724); assay: binding of scFv to intact human RBC (recap in Example 10)
[3] = target: human glycophorin A in the red blood cell membrane (human) (UniProt P02724); assay: Biacore, human RBC membranes
[4] = target: human glycophorin A in the red blood cell membrane (human) (UniProt P02724); assay: FACS, RBC of huGPA/HemA mice and human RBC
[5] = target: human glycophorin A in the red blood cell membrane (human) (UniProt P02724); assay: intact human RBC, scFv left in supernatant by ELISA
[6] = target: human glycophorin A in the red blood cell membrane (human) (UniProt P02724); assay: FACS on normal human RBC, 1E+6 RBC/mL, scFv titrated
[7] = target: human glycophorin A in the red blood cell membrane (human) (UniProt P02724); assay: FACS, IgG

binding [5]	binding [7]	Binder	further results
binds	–	TPP-7792 scFv (scFv) scFv: DIQLTQSPSFLSASVGDRVTITCRASSSVRYIYWFQQKPGKAPKLLIYATSFRQSGVPSRFSGSGSGTEYTLTISSLQPEDFATYYCHQRNSFPYTFGQGTKLEIKEVQLVQSGAEVKKPGASVKVSCKASGYTFTTYAIHWVRQAPGQGLEWMGYINPSSGYTRYNPKFKGRVTMTRDKSTSTAYMELRSLRSDDTAVYYCWTGTRDYWGQGTTVTVSS	binding [1]: binds; binding [2]: binds; binding [3]: binds; binding [4]: binds; binding [6]: binds
binds	–	TPP-7782 scFv (scFv) scFv: DIQLTQSPSFLSASVGDRVTITCRASSSVRYIYWFQQKPGKAPKLLIYATSFRQSGVPSRFSGSGSGTEYTLTISSLQPEDFATYYCHQRNSFPYTFGQGTKLEIKEVQLVQSGAEVKKPGASVKVSCKASGYTFTTYTIHWVRQAPGQGLEWMGYINPSSGYTRYNPKFKGRVTMTRDKSTSTAYMELRSLRSDDTAVYYCQTGTRDYWGQGTTVTVSS	–
binds	–	TPP-7797 scFv (scFv) scFv: DIQLTQSPSFLSASVGDRVTITCRASSSVRYIYWFQQKPGKAPKLLIYATSFRQSGVPSRFSGSGSGTEYTLTISSLQPEDFATYYCHQRNSFPYTFGQGTKLEIKEVQLVQSGAEVKKPGASVKVSCKASGYTFTTYTIHWVRQAPGQGLEWMGYINPSSGYTRYNPKFKGRVTMTRDKSTSTAYMELRSLRSDDTAVYYCWTGRRDYWGQGTTVTVSS	–
binds	–	TPP-7795 scFv (scFv) scFv: DIQLTQSPSFLSASVGDRVTITCRASSSVSYIYWFQQKPGKAPKLLIYATSFLQSGVPSRFSGSGSGTEYTLTISSLQPEDFATYYCHQRNSFPYTFGQGTKLEIKEVQLVQSGAEVKKPGASVKVSCKASGYTFTTYTIHWVRQAPGQGLEWMGYINPKSGWTRYNPKFKGRVTMTRDKSTSTAYMELRSLRSDDTAVYYCQTGTRDYWGQGTTVTVSS	–
binds	–	TPP-7783 scFv (scFv) scFv: DIQLTQSPSFLSASVGDRVTITCRASSSVRYIYWFQQKPGKAPKLLIYATSFRRSGVPSRFSGSGSGTEYTLTISSLQPEDFATYYCHQRNSFPYTFGQGTKLEIKEVQLVQSGAEVKKPGASVKVSCKASGYTFTTYAIHWVRQAPGQGLEWMGYINPSSGYTRYNPKFKHRVTMTRDKSTSTAYMELRSLRSDDTAVYYCWTGTRDYWGQGTTVTVSS	–
binds	–	TPP-7794 scFv (scFv) scFv: DIQLTQSPSFLSASVGDRVTITCRASSSVRYIYWFQQKPGKAPKLLIYATSFRQSGVPSRFSGSGSGTEYTLTISSLQPEDFATYYCHQRNSFPYTFGQGTKLEIKEVQLVQSGAEVKKPGASVKVSCKASGYTFTTYAIHWVRQAPGQGLEWMGYINPSSGYTRYNPKFKHRVTMTRDKSTSTAYMELRSLRSDDTAVYYCWTGTRDYWGQGTTVTVSS	–
binds	–	TPP-7793 scFv (scFv) scFv: DIQLTQSPSFLSASVGDRVTITCRASSSVSYIYWFQQKPGKAPKLLIYATSTLQSGVPSRFSGSGSGTEYTLTISSLQPEDFATYYCHQRNSFPYTFGQGTKLEIKEVQLVQSGAEVKKPGASVKVSCKASGYTFTRYTIHWVRQAPGQGLEWMGYINPSSGYTRYNPKFKGRVTMTRDKSTSTAYMELRSLRSDDTAVYYCWTGTRDYWGQGTTVTVSS	binding [2]: binds
binds	–	TPP-7790 scFv (scFv) scFv: DIQLTQSPSFLSASVGDRVTITCRASSSVRYIYWFQQKPGKAPKLLIYATSFLQSGVPSRFSGSGSGTEYTLTISSLQPEDFATYYCHQRNSFPYTFGQGTKLEIKEVQLVQSGAEVKKPGASVKVSCKASGYTFTTYAIHWVRQAPGQGLEWMGYINPSSGYTRYNPKFKHRVTMTRDKSTSTAYMELRSLRSDDTAVYYCWTGTRDYWGQGTTVTVSS	binding [2]: binds

The next lines start with the binder.

Binder	binding [5]	binding [7]	further results
TPP-7778 scFv (scFv) scFv: DIQLTQSPSFLSASVGDRVTITCRASSSVRYIYWFQQKPGKAPKLLIYATSTLQSGVPSRFSGSGSGTEYTLTISSLQPEDFATYYCHQRNSFPYTFGQGTKLEIKEVQLVQSGAEVKKPGASVKVSCKASGYTFTTYAIHWVRQAPGQGLEWMGYINPSSGYTRYNPKFKHRVTMTRDKSTSTAYMELRSLRSDDTAVYYCQTGTRDYWGQGTTVTVSS	binds	–	–
TPP-7781 scFv (scFv) scFv: DIQLTQSPSFLSASVGDRVTITCRASSSVRYIYWFQQKPGKAPKLLIYATSTLQSGVPSRFSGSGSGTEYTLTISSLQPEDFATYYCHQRNSFPYTFGQGTKLEIKEVQLVQSGAEVKKPGASVKVSCKASGYTFTTYTIHWVRQAPGQGLEWMGYINPKSGWTRYNPKFKGRVTMTRDKSTSTAYMELRSLRSDDTAVYYCQTGTRDYWGQGTTVTVSS	binds	–	–
Hu6C12-22 (antibody, V domains shown) VH: EVQLVQSGAEVKKPGASVKVSCKASGYTFTTYTIHWVRQAPGQGLEWMGYINPSSDYTRYNPKFKDRVTLTTDTSTSTAYMELRSLRSDDTAVYYCATGTRDYWGQGTTVTVSS VL: DIQLTQSPSFLSASVGDRVTITCSAASSVSYIYWFQQKPGKAPKLLIYSTSTLPSGVPSRFSGSGSGTEYTLTISSLQPEDFATYYCHQRNSFPFTFGQGTKLEIK	–	binds	–
Hu6C12-5 (antibody, V domains shown) VH: EVQLVQSGAEVKKPGASVKVSCKASGYTFTTYTIHWVRQAPGQGLEWMGYINPSSDYTRYNPKFKDRVTLTTDTSTSTAYMELRSLRSDDTAVYYCATGTRDYWGQGTTVTVSS VL: DIQLTQSPSFLSASVGDRVTITCSAASSVSYIYWYQQKPGKAPKLLIYSTSTLPSGVPSRFSGSGSGTEFTLTISSLQPEDFATYYCHQRNSFPFTFGQGTKLEIK	–	binds	–
Hu6C12-6 (antibody, V domains shown) VH: EVQLVQSGAEVKKPGASVKVSCKASGYTFTTYTIHWVRQAPGQGLEWMGYINPSSDYTRYNPKFKDRVTLTTDTSTSTAYMELRSLRSDDTAVYYCQTGTRDYWGQGTTVTVSS VL: DIQLTQSPSFLSASVGDRVTITCSAASSVSYIYWYQQKPGKAPKLLIYSTSTLPSGVPSRFSGSGSGTEFTLTISSLQPEDFATYYCHQRNSFPFTFGQGTKLEIK	–	binds	–
Hu6C12-15 (antibody, V domains shown) VH: EVQLVQSGAEVKKPGASVKVSCKASGYTFTTYTIHWVRQAPGQGLEWMGYINPSSDYTRYNPKFKDRVTLTTDTSTSTAYMELRSLRSDDTAVYYCQTGTRDYWGQGTTVTVSS VL: DIQLTQSPSFLSASVGDRVTITCSAASSVSYIYWYQQKPGKAPKLLIYSTSTLPSGVPSRFSGSGSGTEYTLTISSLQPEDFATYYCHQRNSFPFTFGQGTKLEIK	–	binds	–
Hu6C12-23 (antibody, V domains shown) VH: EVQLVQSGAEVKKPGASVKVSCKASGYTFTTYTIHWVRQAPGQGLEWMGYINPSSDYTRYNPKFKDRVTLTTDTSTSTAYMELRSLRSDDTAVYYCQTGTRDYWGQGTTVTVSS VL: DIQLTQSPSFLSASVGDRVTITCSAASSVSYIYWFQQKPGKAPKLLIYSTSTLPSGVPSRFSGSGSGTEYTLTISSLQPEDFATYYCHQRNSFPFTFGQGTKLEIK	–	binds	–
